The values that follow come from the supplement of paper PMC12819154, “High-throughput peptide-centric local stability assay extends protein–ligand identification to membrane proteins, tissues and bacteria” (Nature Structural & Molecular Biology, 2025).

Sequences of proteins named here, by UniProt entry; tags and fusion partners are left off. A change or cut given only in a name is not applied to a line headed by its entry.
UniProt Q8NHM5: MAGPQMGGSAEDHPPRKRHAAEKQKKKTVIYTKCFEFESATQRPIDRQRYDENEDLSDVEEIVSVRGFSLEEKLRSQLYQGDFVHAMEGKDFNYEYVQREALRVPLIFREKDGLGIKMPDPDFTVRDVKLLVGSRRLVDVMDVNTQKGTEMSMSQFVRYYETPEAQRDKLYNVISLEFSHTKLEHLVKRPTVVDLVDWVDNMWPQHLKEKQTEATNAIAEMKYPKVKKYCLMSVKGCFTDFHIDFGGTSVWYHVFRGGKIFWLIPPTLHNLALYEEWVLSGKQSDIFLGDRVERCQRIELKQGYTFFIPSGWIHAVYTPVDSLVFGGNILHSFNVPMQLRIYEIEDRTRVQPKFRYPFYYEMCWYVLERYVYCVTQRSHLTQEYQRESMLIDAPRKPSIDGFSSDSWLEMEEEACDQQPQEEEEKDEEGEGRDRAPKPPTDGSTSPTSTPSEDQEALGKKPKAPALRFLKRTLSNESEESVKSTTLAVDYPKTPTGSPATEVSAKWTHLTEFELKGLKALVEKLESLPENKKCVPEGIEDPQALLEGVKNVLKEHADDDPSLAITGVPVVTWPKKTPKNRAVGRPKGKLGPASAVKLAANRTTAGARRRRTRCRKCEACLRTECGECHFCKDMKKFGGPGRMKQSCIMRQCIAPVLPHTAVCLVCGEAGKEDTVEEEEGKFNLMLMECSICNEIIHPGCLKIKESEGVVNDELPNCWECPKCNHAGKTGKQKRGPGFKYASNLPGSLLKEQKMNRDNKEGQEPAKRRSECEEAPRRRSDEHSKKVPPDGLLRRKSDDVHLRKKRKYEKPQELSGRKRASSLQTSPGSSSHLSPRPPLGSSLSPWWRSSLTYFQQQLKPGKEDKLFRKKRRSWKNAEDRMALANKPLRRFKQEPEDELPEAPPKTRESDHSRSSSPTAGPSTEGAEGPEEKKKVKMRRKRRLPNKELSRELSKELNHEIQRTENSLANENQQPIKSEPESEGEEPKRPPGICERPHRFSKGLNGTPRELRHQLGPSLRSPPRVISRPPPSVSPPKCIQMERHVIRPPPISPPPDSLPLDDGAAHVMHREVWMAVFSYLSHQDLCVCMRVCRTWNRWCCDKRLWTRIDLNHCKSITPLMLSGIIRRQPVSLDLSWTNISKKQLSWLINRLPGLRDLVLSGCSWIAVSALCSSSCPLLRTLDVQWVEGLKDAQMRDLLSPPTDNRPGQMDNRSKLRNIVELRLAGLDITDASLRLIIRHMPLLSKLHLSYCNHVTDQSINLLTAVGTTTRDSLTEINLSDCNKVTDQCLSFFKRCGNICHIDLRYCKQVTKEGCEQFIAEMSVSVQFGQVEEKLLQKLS
UniProt Q8NFG4: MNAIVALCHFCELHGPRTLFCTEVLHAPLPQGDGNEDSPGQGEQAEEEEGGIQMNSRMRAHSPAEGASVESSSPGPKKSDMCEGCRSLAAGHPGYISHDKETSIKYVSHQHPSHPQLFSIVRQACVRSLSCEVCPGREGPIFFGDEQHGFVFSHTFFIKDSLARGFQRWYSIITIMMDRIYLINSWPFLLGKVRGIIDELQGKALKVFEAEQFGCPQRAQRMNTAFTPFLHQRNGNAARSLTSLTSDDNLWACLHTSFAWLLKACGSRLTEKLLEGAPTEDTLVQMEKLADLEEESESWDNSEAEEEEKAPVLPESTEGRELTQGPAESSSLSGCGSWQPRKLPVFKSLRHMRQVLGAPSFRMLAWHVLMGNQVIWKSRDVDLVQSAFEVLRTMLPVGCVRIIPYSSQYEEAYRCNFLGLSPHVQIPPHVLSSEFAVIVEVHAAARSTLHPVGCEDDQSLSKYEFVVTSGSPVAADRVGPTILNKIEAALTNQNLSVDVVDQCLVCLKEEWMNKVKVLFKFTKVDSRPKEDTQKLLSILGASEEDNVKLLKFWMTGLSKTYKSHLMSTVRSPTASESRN
UniProt Q8N720: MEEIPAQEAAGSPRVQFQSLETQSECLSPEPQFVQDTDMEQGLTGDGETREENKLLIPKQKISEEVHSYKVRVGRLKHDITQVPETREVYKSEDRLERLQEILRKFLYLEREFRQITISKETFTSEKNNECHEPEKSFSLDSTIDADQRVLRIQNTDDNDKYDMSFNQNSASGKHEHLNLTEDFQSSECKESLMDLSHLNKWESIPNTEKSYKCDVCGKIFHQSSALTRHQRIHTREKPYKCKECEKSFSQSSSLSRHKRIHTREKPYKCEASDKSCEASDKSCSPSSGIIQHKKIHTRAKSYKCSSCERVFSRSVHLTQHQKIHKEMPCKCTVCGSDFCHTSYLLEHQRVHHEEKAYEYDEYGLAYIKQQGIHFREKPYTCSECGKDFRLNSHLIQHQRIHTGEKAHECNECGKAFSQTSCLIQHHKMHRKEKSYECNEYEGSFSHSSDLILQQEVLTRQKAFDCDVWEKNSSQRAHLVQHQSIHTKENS
UniProt Q8N684: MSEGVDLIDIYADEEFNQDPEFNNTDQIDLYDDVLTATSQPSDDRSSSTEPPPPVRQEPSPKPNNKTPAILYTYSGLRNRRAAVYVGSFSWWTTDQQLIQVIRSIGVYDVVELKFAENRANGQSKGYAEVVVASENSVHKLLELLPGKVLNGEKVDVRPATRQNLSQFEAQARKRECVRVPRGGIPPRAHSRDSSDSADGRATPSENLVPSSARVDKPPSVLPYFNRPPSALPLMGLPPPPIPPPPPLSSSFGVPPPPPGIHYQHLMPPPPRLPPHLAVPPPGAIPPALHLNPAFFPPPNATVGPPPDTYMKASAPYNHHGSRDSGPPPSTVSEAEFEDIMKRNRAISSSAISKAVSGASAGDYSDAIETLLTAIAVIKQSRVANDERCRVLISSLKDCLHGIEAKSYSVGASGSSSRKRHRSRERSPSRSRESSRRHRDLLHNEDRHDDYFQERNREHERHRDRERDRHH
UniProt Q8N4J0: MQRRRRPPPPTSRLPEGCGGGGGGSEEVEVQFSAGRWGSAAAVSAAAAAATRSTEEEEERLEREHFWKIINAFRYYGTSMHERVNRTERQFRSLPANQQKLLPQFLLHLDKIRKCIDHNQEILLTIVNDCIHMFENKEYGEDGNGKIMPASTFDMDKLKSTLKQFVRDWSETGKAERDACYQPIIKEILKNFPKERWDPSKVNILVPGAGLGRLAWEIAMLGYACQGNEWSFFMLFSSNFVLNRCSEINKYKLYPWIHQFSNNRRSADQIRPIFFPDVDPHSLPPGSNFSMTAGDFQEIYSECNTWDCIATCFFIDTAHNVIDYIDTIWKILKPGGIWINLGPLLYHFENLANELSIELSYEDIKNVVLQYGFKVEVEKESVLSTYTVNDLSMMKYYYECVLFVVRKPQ
UniProt Q8NHU6: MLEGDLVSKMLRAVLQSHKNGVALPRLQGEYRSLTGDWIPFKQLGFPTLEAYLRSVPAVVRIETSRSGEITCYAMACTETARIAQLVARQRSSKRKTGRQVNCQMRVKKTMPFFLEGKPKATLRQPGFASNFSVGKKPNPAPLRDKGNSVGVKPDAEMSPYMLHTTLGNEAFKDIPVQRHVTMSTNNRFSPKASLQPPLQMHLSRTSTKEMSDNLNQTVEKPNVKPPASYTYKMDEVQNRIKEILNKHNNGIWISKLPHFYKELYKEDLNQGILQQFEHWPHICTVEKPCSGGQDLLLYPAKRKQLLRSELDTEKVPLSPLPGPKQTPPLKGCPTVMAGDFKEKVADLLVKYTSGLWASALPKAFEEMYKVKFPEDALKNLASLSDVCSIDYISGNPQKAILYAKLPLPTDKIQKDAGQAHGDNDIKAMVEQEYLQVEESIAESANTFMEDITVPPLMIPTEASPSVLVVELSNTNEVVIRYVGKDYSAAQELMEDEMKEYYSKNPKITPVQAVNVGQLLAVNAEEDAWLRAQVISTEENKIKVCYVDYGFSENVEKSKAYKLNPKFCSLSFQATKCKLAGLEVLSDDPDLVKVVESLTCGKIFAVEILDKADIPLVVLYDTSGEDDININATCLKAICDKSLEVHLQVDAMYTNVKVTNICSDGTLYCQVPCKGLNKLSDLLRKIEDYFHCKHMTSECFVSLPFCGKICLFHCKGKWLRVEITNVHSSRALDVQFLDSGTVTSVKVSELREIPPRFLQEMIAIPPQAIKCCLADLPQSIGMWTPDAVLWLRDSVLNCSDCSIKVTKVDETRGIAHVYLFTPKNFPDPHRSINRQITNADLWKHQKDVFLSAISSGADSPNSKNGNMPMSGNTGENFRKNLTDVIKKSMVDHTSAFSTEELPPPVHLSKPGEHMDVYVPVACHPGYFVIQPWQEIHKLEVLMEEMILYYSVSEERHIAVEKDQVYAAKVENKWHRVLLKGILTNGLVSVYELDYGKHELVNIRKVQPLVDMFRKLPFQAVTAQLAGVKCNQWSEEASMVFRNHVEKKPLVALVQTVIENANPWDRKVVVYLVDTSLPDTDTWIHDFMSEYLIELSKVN
UniProt Q8NBH2: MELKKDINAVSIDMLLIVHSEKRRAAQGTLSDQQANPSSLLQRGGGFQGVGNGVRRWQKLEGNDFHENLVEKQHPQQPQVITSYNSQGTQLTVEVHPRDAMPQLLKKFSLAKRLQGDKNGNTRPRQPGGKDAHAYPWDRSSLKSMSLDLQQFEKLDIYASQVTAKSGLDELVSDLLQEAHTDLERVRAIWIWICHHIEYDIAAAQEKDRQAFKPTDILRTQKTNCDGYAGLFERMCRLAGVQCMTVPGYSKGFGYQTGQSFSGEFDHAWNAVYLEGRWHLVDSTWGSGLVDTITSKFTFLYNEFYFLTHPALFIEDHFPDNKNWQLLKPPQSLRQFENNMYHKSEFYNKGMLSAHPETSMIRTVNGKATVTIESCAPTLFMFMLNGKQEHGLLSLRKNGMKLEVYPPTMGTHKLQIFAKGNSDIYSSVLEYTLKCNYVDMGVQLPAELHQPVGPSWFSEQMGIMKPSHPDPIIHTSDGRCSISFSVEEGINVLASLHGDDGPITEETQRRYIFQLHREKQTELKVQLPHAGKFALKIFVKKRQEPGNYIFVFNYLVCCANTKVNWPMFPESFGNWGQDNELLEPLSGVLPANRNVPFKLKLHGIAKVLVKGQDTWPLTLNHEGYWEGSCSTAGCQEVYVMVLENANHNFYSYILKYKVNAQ
UniProt Q8NBK3: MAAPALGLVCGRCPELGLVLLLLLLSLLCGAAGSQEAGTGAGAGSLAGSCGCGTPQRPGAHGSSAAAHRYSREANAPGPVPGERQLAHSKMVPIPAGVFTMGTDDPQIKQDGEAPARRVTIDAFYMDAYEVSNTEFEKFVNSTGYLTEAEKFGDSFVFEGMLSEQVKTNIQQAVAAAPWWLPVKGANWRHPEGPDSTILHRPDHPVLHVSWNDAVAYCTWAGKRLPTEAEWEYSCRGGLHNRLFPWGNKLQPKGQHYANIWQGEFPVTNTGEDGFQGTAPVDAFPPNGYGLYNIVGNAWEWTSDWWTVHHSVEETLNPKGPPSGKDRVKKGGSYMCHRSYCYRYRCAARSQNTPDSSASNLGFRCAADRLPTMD
UniProt Q8N543: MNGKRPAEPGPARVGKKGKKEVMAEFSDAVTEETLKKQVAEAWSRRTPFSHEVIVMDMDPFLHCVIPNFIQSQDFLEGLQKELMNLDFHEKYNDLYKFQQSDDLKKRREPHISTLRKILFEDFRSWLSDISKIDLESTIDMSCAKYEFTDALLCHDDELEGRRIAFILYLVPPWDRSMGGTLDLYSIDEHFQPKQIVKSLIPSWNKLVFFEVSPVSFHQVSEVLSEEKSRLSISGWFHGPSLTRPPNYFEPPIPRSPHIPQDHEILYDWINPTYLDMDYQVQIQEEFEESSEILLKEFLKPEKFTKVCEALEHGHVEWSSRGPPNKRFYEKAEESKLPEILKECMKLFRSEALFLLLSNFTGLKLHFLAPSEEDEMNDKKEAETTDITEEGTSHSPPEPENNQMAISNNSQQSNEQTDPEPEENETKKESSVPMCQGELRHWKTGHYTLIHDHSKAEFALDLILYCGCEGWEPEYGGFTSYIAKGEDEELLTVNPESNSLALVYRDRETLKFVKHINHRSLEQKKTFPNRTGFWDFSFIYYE

The other results are listed elsewhere or left out. Small differences around the control level are noise.

Compound in the assay: Cc1nc(Nc2ncc(C(=O)Nc3c(C)cccc3Cl)s2)cc(N2CCN(CCO)CC2)n1 [dasatinib]
The assay is described as follows: log2 fold change of tryptic peptide abundance, ligand vs vehicle (limited proteolysis) (log2 ratio); higher = more trypsin-susceptible (destabilized). The conditions noted are these: ligand concentration: 5 uM; sample: K562 cleared lysate.
Turning to “UniProt Q8NHM5 (peptide sequence: SSLTYFQQQLKPGKEDK, peptide start residue: 847)”, the log2 fold change was -0.199. The figure for “FLCN (peptide sequence: KSDMCEGCR, peptide start residue: 78) (UniProt Q8NFG4)” is -0.544; for “CMYA5 (peptide sequence: GASPIETSSK, peptide start residue: 1423) (UniProt Q8N3K9)” it is -0.117. On to “ZNF655 (peptide sequence: SCSPSSGIIQHK, peptide start residue: 283) (UniProt Q8N720)”, for which the log2 fold change is -0.53. The figure for “CPSF7 (peptide sequence: QEPSPKPNNKTPAILYTYSGLR, peptide start residue: 57) (UniProt Q8N684)” is 0.153; for “UniProt Q8N4J0 (peptide sequence: STEEEEERLER, peptide start residue: 53)” it is -0.11. With “TDRD7 (peptide sequence: YTSGLWASALPK, peptide start residue: 352) (UniProt Q8NHU6)”, the log2 fold change is -0.612. On to “UniProt Q8NBH2 (peptide sequence: YIFQLHR, peptide start residue: 511)”, for which the log2 fold change worked out at 0.0634. The value for “ZNF808 (peptide sequence: NGHEAPTTK, peptide start residue: 123) (UniProt Q8N4W9)” was 0.591. Consider “SUMF1 (peptide sequence: EANAPGPVPGER, peptide start residue: 73) (UniProt Q8NBK3)”, for which the log2 fold change amounted to 0.0368. Take “OGFOD1 (peptide sequence: VCEALEHGHVEWSSR, peptide start residue: 307) (UniProt Q8N543)”: the log2 fold change was determined as 0.526.
